The record followed here is PMC3796546.

By UniProt entry, the sequences of proteins in these tests, tags left out.
UniProt P25694: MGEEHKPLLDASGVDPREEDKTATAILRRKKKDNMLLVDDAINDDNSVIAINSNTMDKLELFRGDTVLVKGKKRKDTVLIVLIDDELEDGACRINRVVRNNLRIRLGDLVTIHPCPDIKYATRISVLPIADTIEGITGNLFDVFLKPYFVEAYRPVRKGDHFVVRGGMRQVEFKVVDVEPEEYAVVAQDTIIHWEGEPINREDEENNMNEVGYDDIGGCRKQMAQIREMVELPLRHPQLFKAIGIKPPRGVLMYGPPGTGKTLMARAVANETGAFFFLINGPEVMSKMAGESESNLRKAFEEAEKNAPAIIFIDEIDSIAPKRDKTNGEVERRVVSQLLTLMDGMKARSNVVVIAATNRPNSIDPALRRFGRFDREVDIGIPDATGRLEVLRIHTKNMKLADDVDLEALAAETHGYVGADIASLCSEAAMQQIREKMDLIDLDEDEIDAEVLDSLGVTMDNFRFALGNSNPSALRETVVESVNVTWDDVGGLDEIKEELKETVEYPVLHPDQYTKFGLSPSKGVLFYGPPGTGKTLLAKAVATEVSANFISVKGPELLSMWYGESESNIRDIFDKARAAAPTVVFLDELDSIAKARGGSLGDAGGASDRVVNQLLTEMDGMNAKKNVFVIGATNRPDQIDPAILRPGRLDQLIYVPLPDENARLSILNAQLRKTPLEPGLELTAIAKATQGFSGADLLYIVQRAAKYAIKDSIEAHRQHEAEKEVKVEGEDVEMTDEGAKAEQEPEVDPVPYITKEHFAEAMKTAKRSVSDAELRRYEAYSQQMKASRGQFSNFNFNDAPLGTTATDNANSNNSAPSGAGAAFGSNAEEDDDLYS

These are yes or no findings as the source states them, for the method shown. In cells and extracts the contact can be indirect. Some binding calls cover weakened binding; strength is not graded here.

Assay [1] addresses T1, 3xHA-Irc20 (a.a. 584–1556) (S. cerevisiae) (UniProt Q06554).
T1 sequence: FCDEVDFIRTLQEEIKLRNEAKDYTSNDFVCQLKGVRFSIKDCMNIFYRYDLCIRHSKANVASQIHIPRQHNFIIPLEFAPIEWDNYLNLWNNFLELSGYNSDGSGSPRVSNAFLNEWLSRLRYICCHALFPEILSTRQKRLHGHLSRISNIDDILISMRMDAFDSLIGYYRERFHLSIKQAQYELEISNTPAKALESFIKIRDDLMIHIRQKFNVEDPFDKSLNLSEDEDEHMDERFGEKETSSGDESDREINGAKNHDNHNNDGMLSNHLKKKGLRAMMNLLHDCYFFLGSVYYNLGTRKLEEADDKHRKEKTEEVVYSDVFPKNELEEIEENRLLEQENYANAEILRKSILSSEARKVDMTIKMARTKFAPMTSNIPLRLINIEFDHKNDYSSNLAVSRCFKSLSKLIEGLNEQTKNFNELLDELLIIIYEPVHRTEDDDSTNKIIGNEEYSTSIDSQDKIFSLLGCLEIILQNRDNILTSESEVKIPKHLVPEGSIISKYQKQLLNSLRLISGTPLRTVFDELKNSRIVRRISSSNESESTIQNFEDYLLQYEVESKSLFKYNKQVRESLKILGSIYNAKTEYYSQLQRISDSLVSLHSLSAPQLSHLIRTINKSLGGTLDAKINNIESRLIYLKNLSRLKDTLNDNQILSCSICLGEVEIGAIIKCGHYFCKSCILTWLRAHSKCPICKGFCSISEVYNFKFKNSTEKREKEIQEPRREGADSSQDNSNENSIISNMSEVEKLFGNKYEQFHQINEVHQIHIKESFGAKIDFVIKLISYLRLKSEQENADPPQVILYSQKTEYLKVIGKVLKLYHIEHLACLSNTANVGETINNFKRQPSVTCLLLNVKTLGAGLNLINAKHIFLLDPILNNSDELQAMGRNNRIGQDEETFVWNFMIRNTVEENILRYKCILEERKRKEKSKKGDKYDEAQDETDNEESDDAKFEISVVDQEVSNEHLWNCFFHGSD
Description: co-IP; yeast crude extract in RNP buffer (0.1 M HEPES pH 7.4, 100 mM NaCl, 0.1% NP-40) on anti-HA agarose beads, 4°C, 90 minutes; HA-Irc20 derivatives precipitated, Cdc48–3xMyc detected by anti-MYC western blot. For orientation: Immunoblotting shows a protein as a band on a membrane.

For assay [2], the target named is T2, 3xHA-irc20 (Δ1034–1238) (S. cerevisiae) (UniProt Q06554).
T2 sequence: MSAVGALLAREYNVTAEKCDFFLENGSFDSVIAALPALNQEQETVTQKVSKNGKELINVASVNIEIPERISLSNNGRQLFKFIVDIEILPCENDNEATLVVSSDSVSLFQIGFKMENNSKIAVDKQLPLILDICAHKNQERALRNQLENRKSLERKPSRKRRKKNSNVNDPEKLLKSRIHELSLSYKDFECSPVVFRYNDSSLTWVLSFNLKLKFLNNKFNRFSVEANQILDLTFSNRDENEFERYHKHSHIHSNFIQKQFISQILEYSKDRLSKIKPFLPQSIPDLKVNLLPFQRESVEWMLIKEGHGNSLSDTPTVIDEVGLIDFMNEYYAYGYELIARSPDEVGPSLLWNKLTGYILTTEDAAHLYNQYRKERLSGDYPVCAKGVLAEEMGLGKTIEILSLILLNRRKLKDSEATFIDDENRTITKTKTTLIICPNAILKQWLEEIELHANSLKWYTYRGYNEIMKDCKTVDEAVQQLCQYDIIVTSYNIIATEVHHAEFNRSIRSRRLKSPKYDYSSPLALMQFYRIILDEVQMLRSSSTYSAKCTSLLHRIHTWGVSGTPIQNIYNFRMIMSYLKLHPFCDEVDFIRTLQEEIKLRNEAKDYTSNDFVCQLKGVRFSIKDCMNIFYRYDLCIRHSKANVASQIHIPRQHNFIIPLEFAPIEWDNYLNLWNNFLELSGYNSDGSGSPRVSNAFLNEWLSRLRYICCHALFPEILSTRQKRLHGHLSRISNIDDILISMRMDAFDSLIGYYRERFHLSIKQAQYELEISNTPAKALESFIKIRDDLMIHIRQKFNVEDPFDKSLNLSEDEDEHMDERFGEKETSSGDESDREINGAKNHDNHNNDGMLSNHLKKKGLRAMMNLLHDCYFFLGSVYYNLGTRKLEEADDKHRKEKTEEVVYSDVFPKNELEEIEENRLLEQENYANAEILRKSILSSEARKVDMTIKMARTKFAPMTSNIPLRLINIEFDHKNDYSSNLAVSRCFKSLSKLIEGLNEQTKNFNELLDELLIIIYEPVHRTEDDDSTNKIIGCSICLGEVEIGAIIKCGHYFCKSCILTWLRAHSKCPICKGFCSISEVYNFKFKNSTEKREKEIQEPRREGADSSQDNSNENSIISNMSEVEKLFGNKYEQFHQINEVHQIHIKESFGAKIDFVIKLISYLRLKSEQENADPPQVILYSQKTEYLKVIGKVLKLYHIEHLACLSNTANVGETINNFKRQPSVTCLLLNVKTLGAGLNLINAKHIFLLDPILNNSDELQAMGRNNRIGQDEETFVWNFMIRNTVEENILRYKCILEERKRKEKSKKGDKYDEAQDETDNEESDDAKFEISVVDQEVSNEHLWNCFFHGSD
The assay is described as above.

Regarding Cdc48–3xMyc (from UniProt P25694 1-835), the binding result in assay [1] and in assay [2] was “binds” throughout.
